Measured values from paper PMC6933394.
Results are given in words; binding and its absence hold for the method and conditions named. Binding seen in cells or lysates may run through a third protein. Some entries that bind do so weakly or less than the wild type.

The chains behind the UniProt entries cited, without tags or fusion partners. Where a name states a change or a piece, a line headed by the entry shows the natural chain unless it says otherwise.
UniProt Q14457: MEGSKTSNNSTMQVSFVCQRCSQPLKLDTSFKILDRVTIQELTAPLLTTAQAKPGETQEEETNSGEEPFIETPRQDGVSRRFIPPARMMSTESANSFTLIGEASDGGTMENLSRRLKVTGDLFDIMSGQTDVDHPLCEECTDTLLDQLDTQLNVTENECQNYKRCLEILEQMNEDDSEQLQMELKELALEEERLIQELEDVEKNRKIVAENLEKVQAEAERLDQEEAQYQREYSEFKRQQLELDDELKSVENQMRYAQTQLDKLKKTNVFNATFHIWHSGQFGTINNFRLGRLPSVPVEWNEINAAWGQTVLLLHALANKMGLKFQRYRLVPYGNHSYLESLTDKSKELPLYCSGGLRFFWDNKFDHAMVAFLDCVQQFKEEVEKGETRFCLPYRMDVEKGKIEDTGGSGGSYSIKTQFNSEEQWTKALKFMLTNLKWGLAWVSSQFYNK
UniProt P63104: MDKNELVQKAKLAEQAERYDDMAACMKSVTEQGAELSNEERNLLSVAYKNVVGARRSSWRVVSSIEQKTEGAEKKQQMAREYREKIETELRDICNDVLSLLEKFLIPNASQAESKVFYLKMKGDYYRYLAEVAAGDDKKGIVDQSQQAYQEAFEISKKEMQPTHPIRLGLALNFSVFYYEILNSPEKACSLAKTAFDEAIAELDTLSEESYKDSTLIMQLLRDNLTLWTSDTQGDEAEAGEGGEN

Tests used:
[1] = target: beclin 1 (human (endogenous in HCC-LM3 and CSQT-2)) (UniProt Q14457); test: co-IP; 200 μg cell protein of HCC‐LM3 or CSQT‐2 cells, anti‐beclin 1 antibody overnight, Protein A Agarose 2 hours, rinsed with 1x PBS; blot for 14‐3‐3ζ or VPS34; for VPS34 the cells were infected with n.c. oe‐LV or 14‐3‐3ζ oe‐LV
[2] = target: flag‐labelled beclin 1^S295A (human) (UniProt Q14457); test: co-IP; CSQT‐2 cells transfected with flag‐labelled beclin 1; anti‐flag antibody for IP, Protein A Agarose, anti‐14‐3‐3ζ antibody for IB
[3] = target: flag‐labelled beclin 1^S295 (human) (UniProt Q14457); test: as above

- binding [1]: binds
- binding [2]: binds weakly
- binding [3]: binds
Substance: 14‐3‐3ζ (from UniProt P63104 1-245)
